Reference: PubChem BioAssay AID1259296 (Sanger Institute, 2017)
The deposit covers 160 reagents; this is an unselected part. Of all reagents, 45 (28%) got an active call. 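Calls are per single siRNA duplex in CAR1 cells only; how the synergy score is calculated is not stated.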 Entries without a mark were called inactive. Reagents against one gene are numbered here. No viability above 1 is reported: the scale is capped. Further read-outs or replicates are left out here. Reagent sequences are not shown. Not stated in the record: the amount of reagent, the time to read-out.

Screen: 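Kinase knock-downs that boost killing by anchor drugs in colorectal cancer cells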 (follow-up of hits)
Cell system: CAR1 human colorectal cancer cells
Knock-down reagent: single siRNA against human genes
Challenge: anchor drugs BYL719 at 1 µM, cetuximab at 5 µg/ml or trametinib at 10 nM, or DMSO vehicle, added a day after transfection
Measured: 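Viability of cells versus control pool 2 (non-targeting) averaged across replicates; for every anchor drug, synergy score comparing joint effect with drug or siRNA alone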
Direction: synergy with BYL719 and synergy with cetuximab and synergy with trametinib: higher = stronger synergy between knock-down and drug; viability, siRNA plus trametinib: higher = more viable cells
Hit rule: 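Called active if the synergy score with at least one anchor drug is above 0.10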

| synergy with BYL719 | synergy with cetuximab | synergy with trametinib | viability, siRNA plus trametinib (fraction of control) | target | siRNA no. |
| --- | --- | --- | --- | --- | --- |
| -0.0157 | -0.065 | -0.0444 | 0.952 | KCNH8 | 1 |
| 0.0815 (active) | -0.074 | 0.146 | 0.602 | KCNH8 | 2 |
| -0.0712 | -0.0686 | -0.0605 | 0.936 | KCNH8 | 3 |
| -0.0986 | -0.139 | -0.108 | 0.841 | KCNH8 | 4 |
| 0.0547 | -0.027 | -0.0424 | 0.936 | CAMK2N1 | 1 |
| 0.375 (active) | -0.0439 | 0 | 1 | CAMK2N1 | 2 |
| -0.0701 | -0.047 | -0.0405 | 0.81 | CAMK2N1 | 3 |
| -0.0024 | -0.0149 | 0.0276 | 0.624 | CAMK2N1 | 4 |
| 0.335 (active) | 0.045 | 0 | 1 | PRAG1 | 1 |
| 0.442 (active) | -0.0064 | 0.0263 | 0.974 | PRAG1 | 2 |
| -0.0203 | -0.0439 | 0 | 1 | PRAG1 | 3 |
| -0.0396 | -0.0758 | 0.065 | 0.819 | PRAG1 | 4 |
| 0.0742 (active) | -0.0439 | 0.17 | 0.586 | PAK1 | 1 |
| 0.0896 | -0.102 | 0.098 | 0.742 | PAK1 | 2 |
| 0.0819 | -0.129 | 0.0215 | 0.699 | PAK1 | 3 |
| -0.0399 | -0.0733 | -0.0106 | 0.836 | PAK1 | 4 |
| 0.00567 | -0.0766 | -0.0342 | 1 | GRK5 | 1 |
| -0.0627 | -0.0439 | 0 | 1 | GRK5 | 2 |
| 0.0481 (active) | -0.0101 | 0.234 | 0.61 | GRK5 | 3 |
| 0.0485 | 0.0196 | -0.000688 | 1 | GRK5 | 4 |
| 0.0884 | -0.0536 | 0.0643 | 0.523 | BRAF | 1 |
| 0.131 (active) | -0.0244 | 0.00563 | 0.923 | BRAF | 2 |
| 0.0872 (active) | 0.0335 | 0.185 | 0.452 | BRAF | 3 |
| 0.0732 | 0.0505 | 0.0416 | 0.748 | BRAF | 4 |
| 0.185 (active) | 0.0599 | 0.253 | 0.638 | MAPK4 | 1 |
| 0.047 | 0.0055 | -0.0311 | 0.862 | MAPK4 | 2 |
| 0.0487 | 0.0375 | 0.042 | 0.897 | MAPK4 | 3 |
| -0.00621 | -0.0514 | -0.11 | 0.693 | MAPK4 | 4 |

Ordered by “synergy with BYL719” (high to low): some entries from above
| synergy with BYL719 | synergy with cetuximab | synergy with trametinib | viability, siRNA plus trametinib (fraction of control) | target | siRNA no. |
| --- | --- | --- | --- | --- | --- |
| 0.131 (active) | -0.0244 | 0.00563 | 0.923 | BRAF | 2 |
| 0.0884 | -0.0536 | 0.0643 | 0.523 | BRAF | 1 |
| 0.0872 (active) | 0.0335 | 0.185 | 0.452 | BRAF | 3 |
| 0.0732 | 0.0505 | 0.0416 | 0.748 | BRAF | 4 |
| 0.0485 | 0.0196 | -0.000688 | 1 | GRK5 | 4 |
| 0.0481 (active) | -0.0101 | 0.234 | 0.61 | GRK5 | 3 |
| 0.00567 | -0.0766 | -0.0342 | 1 | GRK5 | 1 |
| -0.0399 | -0.0733 | -0.0106 | 0.836 | PAK1 | 4 |
| -0.0627 | -0.0439 | 0 | 1 | GRK5 | 2 |

The listing continues.
| synergy with BYL719 | synergy with cetuximab | synergy with trametinib | viability, siRNA plus trametinib (fraction of control) | target | siRNA no. |
| --- | --- | --- | --- | --- | --- |
| 0.0789 | -0.115 | 0.0343 | 0.617 | HSPB8 | 1 |
| -0.0449 | -0.0294 | -0.00622 | 1 | HSPB8 | 2 |
| 0.0322 | 0.0218 | 0.00954 | 0.912 | HSPB8 | 3 |
| -0.0583 (active) | 0.0786 | 0.146 | 0.743 | HSPB8 | 4 |
| 0.0518 | 0.00952 | -0.0908 | 0.989 | PFKFB3 | 1 |
| -0.014 | 0.0271 | 0.0138 | 0.883 | PFKFB3 | 2 |
| -0.124 | -0.0761 | -0.0662 | 0.974 | PFKFB3 | 3 |
| -0.0981 | 0.0211 | 0.0223 | 0.893 | PFKFB3 | 4 |
| 0.0676 | 0.0125 | 0.0179 | 0.805 | HUNK | 1 |
| 0.114 (active) | 0.144 | 0.139 | 0.617 | HUNK | 2 |
| 0.0786 | -0.0917 | 0.0327 | 0.815 | HUNK | 3 |
| 0.0418 | -0.101 | -0.0565 | 0.971 | HUNK | 4 |
| -0.0562 | -0.072 | -0.0294 | 1 | MAP3K8 | 1 |
| 0.0335 | -0.126 | -0.0834 | 0.838 | MAP3K8 | 2 |
| -0.0561 | -0.0344 | -0.159 | 0.916 | MAP3K8 | 3 |
| -0.097 | -0.0672 | -0.0805 | 1 | MAP3K8 | 4 |
| -0.00419 | 0.0106 | 0.0561 | 0.775 | IKBKB | 1 |
| -0.0733 | -0.0463 | 0.0441 | 0.793 | IKBKB | 2 |
| -0.0273 | 0.0818 | -0.0405 | 0.998 | IKBKB | 3 |
| 0.0225 | -0.0439 | 0 | 1 | IKBKB | 4 |
| 0.0172 | -0.0375 | -0.00231 | 0.924 | GTF2H1 | 1 |
| -0.0775 | 0.00487 | 0 | 1 | GTF2H1 | 2 |
| 0.0343 | 0.021 | 0 | 1 | GTF2H1 | 3 |
| 0.129 (active) | 0.0848 | 0.149 | 0.702 | GTF2H1 | 4 |
| -0.0806 | -0.105 | -0.0316 | 0.933 | GUCY2D | 1 |
| 0.115 (active) | -0.0452 | 0.148 | 0.699 | GUCY2D | 2 |
| -0.0466 | -0.0435 | 0.0336 | 0.755 | GUCY2D | 3 |
| -0.00631 | -0.0607 | 0.0556 | 0.927 | GUCY2D | 4 |
| 0.145 (active) | 0.155 | -0.00102 | 0.906 | NLK | 1 |
| 0.214 (active) | 0.0954 | 0.232 | 0.534 | NLK | 2 |
| -0.07 | -0.0521 | -0.00849 | 0.951 | NLK | 3 |
| -0.118 | -0.0821 | -0.0668 | 1 | NLK | 4 |
| 0.067 (active) | 0.144 | 0.171 | 0.569 | IRAK3 | 1 |
| 0.0151 | -0.111 | -0.125 | 0.978 | IRAK3 | 2 |
| 0.0859 | -0.0663 | 0.0545 | 0.922 | IRAK3 | 3 |
| -0.126 | -0.117 | 0.0446 | 0.836 | IRAK3 | 4 |
